# The campaign covered roughly 300,000 compounds. About 5,400 (1.8%) were called active. This list was built around the results that the source calls inconclusive (neither active nor inactive); the mix of calls is not that of the screen. The call rests on the fitted dose curve; tested in HEK293 cells. Where the call is inconclusive, the potency comes from a doubtful curve fit. Where a structure was tested more than once in an assay, its records may differ in their call.
# Assay: qHTS for inhibitors of binding or entry into cells for Marburg Virus
# Conditions: Marburg virus pseudotyped entry inhibition, cell reporter; series mostly up to 37.8 µM
# Potency means the concentration at half of the fitted maximal effect.
row,Structure (SMILES),Potency
1,Cc1[nH]cnc1CSCc1ccc(F)cc1,"inconclusive: 20 µM [activator, partial curve, poor fit]"
2,S=c1[nH]nc(-c2cc(-c3ccco3)[nH]n2)n1-c1ccccc1Cl,inactive
3,O=C(Nc1ccc(Cl)c(C(F)(F)F)c1)c1ccc2c(c1)CCN2S(=O)(=O)c1ccccc1,"inconclusive: 7.08 µM [inhibitor, full curve, poor fit]"
4,CC(=O)Nc1nc(C)c(-c2csc(Nc3ccc(O)cc3)n2)s1,active: 4.61 µM
5,CCCCn1cnc2sc3c(c2c1=N)CCCC3,"inconclusive: 35.5 µM [inhibitor, single point]"
6,CCN1C(=O)c2ccccc2Sc2ccc(C(=O)NCCN3CCOCC3)cc21,inactive
7,CCOCCCN(C(=O)c1snc(C(N)=O)c1N)C(C(=O)NCCC(C)C)c1ccc(Cl)cc1 (stereo not drawn),"inconclusive: 20 µM [inhibitor, partial curve, poor fit]"
8,COc1ccc(CN=C2Nc3ccccc3CS2)cc1,"inconclusive: 20.6 µM [inhibitor, partial curve, poor fit]"
9,CC(=O)c1c(C)[nH]c(C(=O)CSc2nnc(-c3ccco3)o2)c1C,active: 11.2 µM
10,CCOc1ccc(-c2cc(C(=O)NCCCN3CCN(CC)CC3)c3ccccc3n2)cc1,"inconclusive: 18.3 µM [inhibitor, single point]"
11,Cc1ccc(-n2c3c(c(=O)[nH]c2=S)C(C(F)(F)F)(C(F)(F)F)NC(=O)N3)cc1,"inconclusive: 29.1 µM [activator, single point]"
12,COc1ccc(-c2c(-c3ccc(O)cc3O)n[nH]c2C)cc1OC,"inconclusive: 8.2 µM [inhibitor, partial curve, poor fit]"
13,O=C(OCn1ncc(Cl)c(Cl)c1=O)c1ccc(C(F)(F)F)cc1,"inconclusive: 29.1 µM [inhibitor, single point]"
14,CCN(CC)S(=O)(=O)c1cc(C(=O)OCC(=O)c2ccc3c(c2)NC(=O)CO3)ccc1F,"inconclusive: 5.62 µM [activator, single point]"
15,O=C(c1c[nH]c2ccccc2c1=O)N1CCCCCC1,"inconclusive: 22.4 µM [inhibitor, single point]"
16,COc1ccc(C2=NOC(C(=O)NC3CCCCC3)C2)cc1OC (stereo not drawn),inactive
17,COc1cc(NC(=O)COC(=O)/C=C/c2ccc(Cl)cc2Cl)cc(OC)c1,"inconclusive: 1.26 µM [inhibitor, partial curve, poor fit]"
18,CC1=NN(c2ccccc2)C(=O)/C1=C\c1cc(C)n(C)c1C,inactive
19,CC(=O)c1cc(NC(=O)c2ccccc2)c(=O)oc1C,inactive
20,CC(C)c1nc2oc3c(NCC4CCCO4)ncnc3c2c2c1CCC2 (stereo not drawn),"inconclusive: 35.5 µM [inhibitor, single point]"
21,CCN(CCNC(=O)C1CCN(S(C)(=O)=O)CC1)c1ccccc1,inactive
22,Cc1cc(N2CCN(C)CC2)nc2ccc(NC(=S)N3CCN(c4ccccn4)CC3)cc12,"inconclusive: 10 µM [inhibitor, partial curve, poor fit]"
23,CC(CCc1ccccc1)NS(=O)(=O)c1ccccc1 (stereo not drawn),"inconclusive: 14.1 µM [inhibitor, single point]"

row,Structure (SMILES),Potency
1,CCNC(=O)/C(C#N)=C/c1c(N2CCCCCC2)nc2c(C)cccn2c1=O,"inconclusive: 5.62 µM [inhibitor, single point]"
2,CCNC(=S)NN=C1c2ccccc2-c2ccccc21,inactive
3,Cc1cc(C(=O)COC(=O)c2ccccc2O)c(C)n1Cc1cccs1,active: 0.82 µM
4,COc1ccc(OCc2cccc(C(=O)Nn3cc([N+](=O)[O-])cn3)c2)cc1,"inconclusive: 1.64 µM [inhibitor, full curve, poor fit]"
5,COc1ccc(-c2nc(CS(=O)(=O)CC(=O)NCCc3cc(OC)ccc3OC)c(C)o2)cc1,"inconclusive: 16.4 µM [inhibitor, single point]"
6,CCc1ccc(NC(=O)c2ccc(NC(=O)C3CCCO3)cc2)cc1 (stereo not drawn),"inconclusive: 6.31 µM [activator, single point]"
7,O=C(Nc1ccccc1Cl)Nc1ccccc1Cl,inactive
8,O=C(Nc1ccc(F)cc1F)c1ccc2c(c1)CCN2S(=O)(=O)c1ccc(Cl)cc1,inactive
9,CCOc1ccc(CC2c3cc(OCC)c(OCC)cc3CCN2C(=O)c2cc(OC)c(OC)c(OC)c2)cc1OCC (stereo not drawn),"inconclusive: 8.2 µM [inhibitor, partial curve, poor fit]"
10,CC(C)(C)CN1CCC(Oc2cccc(C(=O)N3CCNC(=O)C3(C)C)c2)CC1,inactive
11,O=c1[nH]cnc2c1c(-c1ccccc1)cn2-c1ccc(Br)cc1,"inconclusive: 15.8 µM [inhibitor, single point]"
12,CCCOc1ccccc1NC(=O)CC1Nc2ccccc2NC1=O (stereo not drawn),inactive
13,CCOC(=O)c1sc(NC(=O)c2ccc(S(=O)(=O)N3CCCCC3)cc2)nc1-c1ccccc1,"inconclusive: 12.6 µM [inhibitor, single point]"
14,CCOC(=O)c1cc2c(=O)n3ccccc3nc2n(C)c1=NC(=O)c1c(-c2ccccc2Cl)noc1C,"inconclusive: 5.62 µM [activator, single point]"
15,COC(=O)c1sccc1NC(=S)N1CCN(c2cc(C)ccc2C)CC1,"inconclusive: 35.5 µM [inhibitor, single point]"
16,COc1ccc(C(=O)NC(=S)Nc2ccc(N3CCOCC3)cc2)cc1Cl,"inconclusive: 35.5 µM [inhibitor, single point]"
17,Cn1c(=O)c2c(nc(N/N=C/c3cccnc3)n2Cc2ccc(F)cc2)n(C)c1=O,inactive
18,CC(NC(=O)Cn1cc(Br)c([N+](=O)[O-])n1)c1ccccc1 (stereo not drawn),"inconclusive: 1.26 µM [inhibitor, partial curve, poor fit]"
19,O=C(Nc1nc2ccc(S(=O)(=O)N3CCOCC3)cc2s1)c1cccs1,"inconclusive: 5.62 µM [activator, full curve, poor fit]"
20,CC1=CC2=NC(=O)/C(=C\c3cccn3CCOc3ccc(C)c(C)c3)C(=N)N2O1,"inconclusive: 11.2 µM [inhibitor, partial curve]"
21,CC(=O)c1ccc(NC(=O)CSc2nc(Nc3ccccc3)nc(N3CCOCC3)n2)cc1,"inconclusive: 35.5 µM [inhibitor, single point]"
22,O=C1C=CC(=O)N1Cc1cccnc1,inactive
23,Cc1ccc(C2CC(c3cccs3)=NN2C(=O)CCl)cc1 (stereo not drawn),"inconclusive: 35.5 µM [inhibitor, single point]"

# Reformatted: 3 of the compounds above.
row	Structure (SMILES)	Potency
17	Cn1c(=O)c2c(nc(N/N=C/c3cccnc3)n2Cc2ccc(F)cc2)n(C)c1=O	inactive
18	CC(NC(=O)Cn1cc(Br)c([N+](=O)[O-])n1)c1ccccc1 (stereo not drawn)	inconclusive: 1.26 µM [inhibitor, partial curve, poor fit]
19	O=C(Nc1nc2ccc(S(=O)(=O)N3CCOCC3)cc2s1)c1cccs1	inconclusive: 5.62 µM [activator, full curve, poor fit]

# Remaining list, next part:

row,Structure (SMILES),Potency
1,CC(C)N(C(=O)C[n+]1ccc(/C=N/O)cc1)C(C)C,inactive
2,CN(C)CCCC1(c2ccc(F)cc2)OCc2cc(C#N)ccc21 (stereo not drawn),active: 15.8 µM
3,Clc1ccc(CONc2ncnc3nonc23)c(Cl)c1,"inconclusive: 35.5 µM [inhibitor, partial curve, poor fit]"
4,CCCc1nc(SCC(=O)c2ccc(OC)cc2)c2c(=O)n(C)c(=O)n(C)c2n1,inactive
5,CN1CCN(C2=C(Cl)C(=O)C(c3cnc(N4CCCCC4)s3)=C(Cl)C2=O)CC1,inactive
6,CC(C)c1ccc(NC(=O)NN2CCOCC2)cc1,"inconclusive: 29.1 µM [inhibitor, single point]"
7,Nn1nnc2ccccc21,inactive
8,CCOC(=O)Cc1ccc(NC(=O)Nc2cc3c(cc2N2CCCCC2)n(C)c(=O)n3C)cc1,"inconclusive: 8.91 µM [inhibitor, partial curve, poor fit]"
9,O=C(O)COc1ccccc1/C=N/NC(=O)c1ccc(F)cc1,"inconclusive: 5.01 µM [inhibitor, single point]"
10,C/C(O)=C(/C=NCC(=O)O)C(=O)Nc1nccs1,"inconclusive: 0.562 µM [inhibitor, full curve, poor fit]"
11,Fc1ccc(-n2nnnc2-c2cnc(-c3cccs3)nc2C(F)(F)F)cc1,"inconclusive: 23.1 µM [inhibitor, single point]"
12,Cc1cccc(NC(=O)c2ccc(S(=O)(=O)N3CCOCC3)cc2)c1C,inactive
13,CC(C)(C)C1CCc2c(sc(NC(=O)c3cccs3)c2C(=O)N2CCCCC2)C1 (stereo not drawn),"inconclusive: 35.5 µM [inhibitor, single point]"
14,COc1ccccc1CNC(=O)C(NS(=O)(=O)c1ccc2c(c1)OCCO2)C(C)C (stereo not drawn),"inconclusive: 0.517 µM [activator, partial curve]"
15,Cc1cc(C)c2nc(N3CCC(C(=O)NCCCN4CCCCC4)CC3)sc2c1,"inconclusive: 20.6 µM [inhibitor, partial curve, poor fit]"
16,CCOC(=O)c1cc(OC(=O)c2ccc(OC)cc2)n(-c2ccccc2)n1,"inconclusive: 5.62 µM [inhibitor, single point]"
17,COc1ccc(CCNC(=O)C2CCCN(c3nc(C)cc(C)n3)C2)cc1 (stereo not drawn),inactive
18,COc1ccc(NC(=O)C(Cc2ccccc2)NS(=O)(=O)c2ccc3c(c2)CCN3C(C)=O)cc1 (stereo not drawn),"inconclusive: 1 µM [inhibitor, full curve, poor fit]"
19,Cc1ccc(NC(=O)CSc2nc3c(c(=O)[nH]2)CN(Cc2ccc(F)cc2)CC3)cc1C,"inconclusive: 1.26 µM [inhibitor, full curve, poor fit]"
20,COc1ccccc1C1=NC(c2ccc(F)cc2)N=C1C (stereo not drawn),"inconclusive: 2.51 µM [inhibitor, partial curve, poor fit]"
21,CCCn1c(=N)c(C(=O)NCc2cccnc2)cc2c(=O)n3ccccc3nc21,"inconclusive: 5.62 µM [activator, single point]"
22,Cc1cccc(-n2ncc3c(N4CCCC4)ncnc32)c1,"inconclusive: 5.8 µM [inhibitor, partial curve, poor fit]"

# A stretch from the list above, for reference:
row,Structure (SMILES),Potency
21,CCN(CCNC(=O)C1CCN(S(C)(=O)=O)CC1)c1ccccc1,inactive
22,Cc1cc(N2CCN(C)CC2)nc2ccc(NC(=S)N3CCN(c4ccccn4)CC3)cc12,"inconclusive: 10 µM [inhibitor, partial curve, poor fit]"

# From PubChem BioAssay AID540276 (National Center for Advancing Translational Sciences (NCATS), 2011)
